In US20030199423A1:
Results are given in words; binding and its absence hold for the method and conditions named. Some entries that bind do so weakly or less than the wild type.

By UniProt entry, the sequences of proteins in these tests, tags left out.
UniProt P68363: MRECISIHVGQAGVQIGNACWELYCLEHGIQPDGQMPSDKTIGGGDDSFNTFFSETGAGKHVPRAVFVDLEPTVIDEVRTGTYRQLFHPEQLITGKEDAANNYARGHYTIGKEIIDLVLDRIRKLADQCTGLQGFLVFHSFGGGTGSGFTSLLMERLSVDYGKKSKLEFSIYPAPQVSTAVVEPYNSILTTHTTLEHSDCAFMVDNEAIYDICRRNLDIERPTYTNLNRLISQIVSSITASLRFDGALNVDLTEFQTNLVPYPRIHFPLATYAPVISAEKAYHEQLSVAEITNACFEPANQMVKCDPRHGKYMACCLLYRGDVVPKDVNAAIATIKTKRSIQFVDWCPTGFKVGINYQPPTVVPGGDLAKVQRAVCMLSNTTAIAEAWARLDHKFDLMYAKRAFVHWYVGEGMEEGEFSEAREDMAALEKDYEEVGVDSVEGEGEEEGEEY

Assays:
[1] = molecular target: T1, ICAM-R cytoplasmic tail (C-tail) peptide (human); assay: peptide beads with Jijoye cell lysate, western blot
T1 sequence (peptide): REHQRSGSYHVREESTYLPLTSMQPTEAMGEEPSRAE

[2] = molecular target: T1, ICAM-R cytoplasmic tail (C-tail) peptide (human); assay: C-tail affinity chromatography of tonsil lysate, peptide elution, western blot

binding [1]: binds
binding [2]: binds
Substance: alpha-tubulin in cell lysates (from UniProt P68363 1-451)
